{"source": "paper PMC11253597", "key": {"[1]": {"target": "T1, GFP::SNTB2^GLGI4A (human) (UniProt Q13425)", "T1 sequence": "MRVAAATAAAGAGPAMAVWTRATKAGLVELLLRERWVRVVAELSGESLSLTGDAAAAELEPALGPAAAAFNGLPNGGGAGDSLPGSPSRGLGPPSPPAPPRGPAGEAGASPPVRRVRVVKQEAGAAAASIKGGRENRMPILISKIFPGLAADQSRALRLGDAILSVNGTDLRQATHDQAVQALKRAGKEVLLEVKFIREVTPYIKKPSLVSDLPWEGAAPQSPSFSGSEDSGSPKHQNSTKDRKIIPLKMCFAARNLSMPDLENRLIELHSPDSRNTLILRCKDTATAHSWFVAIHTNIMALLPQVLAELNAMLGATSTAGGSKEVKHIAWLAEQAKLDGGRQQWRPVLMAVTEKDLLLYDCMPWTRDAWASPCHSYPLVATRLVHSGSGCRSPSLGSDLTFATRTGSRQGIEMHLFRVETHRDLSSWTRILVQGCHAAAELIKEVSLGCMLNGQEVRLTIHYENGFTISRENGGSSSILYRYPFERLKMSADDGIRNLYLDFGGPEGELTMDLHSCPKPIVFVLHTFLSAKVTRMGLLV", "test": "co-IP; GFP-tagged β-2-syntrophin (GFP::SNTB2) variants co-expressed with mCherry::SseM in SNTB2 KO1 HEK293 cells; GFP-trap immunoprecipitation, immunoblot"}, "GFP::SNTB2^H176V (human)": {"target": "T2, GFP::SNTB2^H176V (human) (UniProt Q13425)", "T2 sequence": "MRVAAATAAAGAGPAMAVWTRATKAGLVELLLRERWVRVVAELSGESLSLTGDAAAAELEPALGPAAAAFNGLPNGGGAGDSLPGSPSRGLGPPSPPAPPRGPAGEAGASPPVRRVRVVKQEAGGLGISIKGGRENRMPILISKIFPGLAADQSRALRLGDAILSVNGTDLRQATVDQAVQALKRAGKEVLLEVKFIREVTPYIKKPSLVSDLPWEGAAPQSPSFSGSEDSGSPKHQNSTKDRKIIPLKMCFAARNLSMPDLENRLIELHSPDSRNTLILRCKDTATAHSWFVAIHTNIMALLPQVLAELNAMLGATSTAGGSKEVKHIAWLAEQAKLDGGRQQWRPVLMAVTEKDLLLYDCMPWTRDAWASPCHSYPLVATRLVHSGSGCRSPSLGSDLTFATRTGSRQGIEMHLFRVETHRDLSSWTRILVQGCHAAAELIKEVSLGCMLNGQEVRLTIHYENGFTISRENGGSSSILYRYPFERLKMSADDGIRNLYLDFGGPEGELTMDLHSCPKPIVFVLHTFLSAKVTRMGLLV", "test": "co-IP; GFP-tagged β-2-syntrophin (GFP::SNTB2) variants co-expressed with mCherry::SseM in SNTB2 KO1 HEK293 cells; GFP-trap immunoprecipitation, immunoblot"}, "GFP::SNTB2^H176Y (human)": {"target": "T3, GFP::SNTB2^H176Y (human) (UniProt Q13425)", "T3 sequence": "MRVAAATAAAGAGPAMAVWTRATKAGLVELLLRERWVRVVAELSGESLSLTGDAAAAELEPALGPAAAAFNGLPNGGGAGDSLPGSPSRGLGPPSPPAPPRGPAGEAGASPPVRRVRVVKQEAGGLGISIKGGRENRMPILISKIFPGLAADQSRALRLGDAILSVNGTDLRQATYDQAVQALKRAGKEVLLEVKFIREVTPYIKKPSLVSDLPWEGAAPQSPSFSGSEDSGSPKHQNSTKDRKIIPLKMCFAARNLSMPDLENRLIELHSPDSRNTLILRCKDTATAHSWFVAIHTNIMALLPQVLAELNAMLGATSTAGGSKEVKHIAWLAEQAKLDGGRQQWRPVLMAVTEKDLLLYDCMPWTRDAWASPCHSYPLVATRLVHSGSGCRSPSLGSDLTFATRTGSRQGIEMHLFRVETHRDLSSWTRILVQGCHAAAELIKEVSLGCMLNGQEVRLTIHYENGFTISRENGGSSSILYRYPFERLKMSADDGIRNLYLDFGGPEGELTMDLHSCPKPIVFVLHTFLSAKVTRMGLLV", "test": "co-IP; GFP-tagged β-2-syntrophin (GFP::SNTB2) variants co-expressed with mCherry::SseM in SNTB2 KO1 HEK293 cells; GFP-trap immunoprecipitation, immunoblot"}, "[2]": {"target": "GFP::SseM-HA (Salmonella enterica serovar Typhimurium strain 12023)", "test": "co-IP; GFP-trap agarose on lysates of HEK293 cells transiently transfected (16 h) with GFP-tagged SseM variants; immunoblot for endogenous β-2-syntrophin and α-dystrobrevin"}, "[3]": {"target": "GFP::SseM^RE2A (Salmonella enterica serovar Typhimurium strain 12023)", "test": "co-IP; GFP-trap agarose on lysates of HEK293 cells transiently transfected (16 h) with GFP-tagged SseM variants; immunoblot for endogenous β-2-syntrophin and α-dystrobrevin"}}, "note": "Results are given in words; binding and its absence hold for the method and conditions named. In cells and extracts the contact can be indirect. For some assays here: Tags and fused reporters may be left off the sequences shown.", "data": [{"molecule": "mCherry::SseM (Salmonella enterica serovar Typhimurium)", "values": [{"measurement": "binding", "setting": "[1]", "result": "no binding"}, {"measurement": "binding", "setting": "GFP::SNTB2^H176V (human)", "result": "no binding"}, {"measurement": "binding", "setting": "GFP::SNTB2^H176Y (human)", "result": "no binding"}]}, {"molecule": "α-dystrobrevin (protein, UniProt Q9Y4J8 1-743) MIEDSGKRGNTMAERRQLFAEMRAQDLDRIRLSTYRTACKLRFVQKKCNLHLVDIWNVIEALRENALNNLDPNTELNVSRLEAVLSTIFYQLNKRMPTTHQIHVEQSISLLLNFLLAAFDPEGHGKISVFAVKMALATLCGGKIMDKLRYIFSMISDSSGVMVYGRYDQFLREVLKLPTAVFEGPSFGYTEQSARSCFSQQKKVTLNGFLDTLMSDPPPQCLVWLPLLHRLANVENVFHPVECSYCHSESMMGFRYRCQQCHNYQLCQDCFWRGHAGGSHSNQHQMKEYTSWKSPAKKLTNALSKSLSCASSREPLHPMFPDQPEKPLNLAHIVDTWPPRPVTSMNDTLFSHSVPSSGSPFITRSSPPKDSEVEQNKLLARAAPAFLKGKGIQYSLNVADRLADEHVLIGLYVNMLRNNPSCMLESSNRLDEEHRLIARYAARLAAESSSSQPPQQRSAPDISFTIDANKQQRQLIAELENKNREILQEIQRLRLEHEQASQPTPEKAQQNPTLLAELRLLRQRKDELEQRMSALQESRRELMVQLEGLMKLLKTQGAGSPRSSPSHTISRPIPMPIRSASACSTPTHTPQDSLTGVGGDVQEAFAQSSRRNLRNDLLVAADSITNTMSSLVKELNSEVGSETESNVDSEFARTQFEDLVPSPTSEKAFLAQIHARKPGYIHSGATTSTMRGDMVTEDADPYVQPEDENYENDSVRQLENELQMEEYLKQKLQDEAYQVSLQG", "values": [{"measurement": "binding", "setting": "[2]", "result": "no binding"}, {"measurement": "binding", "setting": "[3]", "result": "no binding"}]}]}
